These are yes or no findings as the source states them, for the method shown. In cells and extracts the contact can be indirect. Some entries that bind do so weakly or less than the wild type.
Molecular target: STAT3 (human (endogenous in HNSCC cells)) (UniProt P40763)
Assay: co-IP; immunoprecipitation with anti-STAT3, blot for SMAD3; HNSCC cells after SOX2-OT overexpression

By UniProt entry, the sequences of proteins in these tests, tags left out.
UniProt P40763: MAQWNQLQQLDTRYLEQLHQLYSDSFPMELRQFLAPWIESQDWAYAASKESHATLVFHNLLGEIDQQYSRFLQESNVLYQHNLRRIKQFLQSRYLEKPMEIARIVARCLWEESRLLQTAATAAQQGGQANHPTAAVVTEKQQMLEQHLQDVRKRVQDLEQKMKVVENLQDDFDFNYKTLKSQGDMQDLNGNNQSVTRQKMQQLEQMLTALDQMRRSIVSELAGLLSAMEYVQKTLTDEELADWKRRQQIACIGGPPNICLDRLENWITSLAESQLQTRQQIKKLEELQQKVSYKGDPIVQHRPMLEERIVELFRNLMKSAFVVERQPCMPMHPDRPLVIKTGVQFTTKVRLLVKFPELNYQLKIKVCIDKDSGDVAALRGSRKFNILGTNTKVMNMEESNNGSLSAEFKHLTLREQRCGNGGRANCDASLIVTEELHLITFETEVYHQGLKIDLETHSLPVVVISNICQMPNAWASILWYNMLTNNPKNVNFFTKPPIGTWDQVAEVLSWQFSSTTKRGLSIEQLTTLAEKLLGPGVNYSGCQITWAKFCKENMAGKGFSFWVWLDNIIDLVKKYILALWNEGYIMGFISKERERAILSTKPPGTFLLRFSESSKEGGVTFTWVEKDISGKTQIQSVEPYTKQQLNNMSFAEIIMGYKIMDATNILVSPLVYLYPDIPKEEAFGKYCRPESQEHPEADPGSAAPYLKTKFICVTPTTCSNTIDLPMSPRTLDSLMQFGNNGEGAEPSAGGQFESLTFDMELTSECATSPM
UniProt P84022: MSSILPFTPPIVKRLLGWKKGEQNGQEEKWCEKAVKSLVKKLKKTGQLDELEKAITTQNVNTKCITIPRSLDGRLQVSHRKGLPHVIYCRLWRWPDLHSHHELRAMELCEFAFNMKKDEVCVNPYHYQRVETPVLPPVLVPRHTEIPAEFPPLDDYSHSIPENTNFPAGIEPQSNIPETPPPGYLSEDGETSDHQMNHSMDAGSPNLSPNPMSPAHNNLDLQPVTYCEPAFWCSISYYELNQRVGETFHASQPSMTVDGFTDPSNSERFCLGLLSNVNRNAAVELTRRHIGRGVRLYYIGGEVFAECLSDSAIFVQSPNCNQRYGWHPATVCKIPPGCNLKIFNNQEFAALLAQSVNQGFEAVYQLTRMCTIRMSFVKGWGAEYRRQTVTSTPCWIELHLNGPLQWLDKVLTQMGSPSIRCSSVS

- binding: binds
Substance: SMAD3 (from UniProt P84022 1-425)
